Assay results from the supplement of paper PMC10849652.
The other results are listed elsewhere or left out.

By UniProt entry, the sequences of proteins in these tests, tags left out. Where a name states a change or a piece, a line headed by the entry shows the natural chain unless it says otherwise.
UniProt Q5XKP0: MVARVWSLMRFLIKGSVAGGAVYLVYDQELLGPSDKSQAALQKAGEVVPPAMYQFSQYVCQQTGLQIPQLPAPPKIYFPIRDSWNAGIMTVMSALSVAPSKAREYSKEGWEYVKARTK
UniProt Q8N108: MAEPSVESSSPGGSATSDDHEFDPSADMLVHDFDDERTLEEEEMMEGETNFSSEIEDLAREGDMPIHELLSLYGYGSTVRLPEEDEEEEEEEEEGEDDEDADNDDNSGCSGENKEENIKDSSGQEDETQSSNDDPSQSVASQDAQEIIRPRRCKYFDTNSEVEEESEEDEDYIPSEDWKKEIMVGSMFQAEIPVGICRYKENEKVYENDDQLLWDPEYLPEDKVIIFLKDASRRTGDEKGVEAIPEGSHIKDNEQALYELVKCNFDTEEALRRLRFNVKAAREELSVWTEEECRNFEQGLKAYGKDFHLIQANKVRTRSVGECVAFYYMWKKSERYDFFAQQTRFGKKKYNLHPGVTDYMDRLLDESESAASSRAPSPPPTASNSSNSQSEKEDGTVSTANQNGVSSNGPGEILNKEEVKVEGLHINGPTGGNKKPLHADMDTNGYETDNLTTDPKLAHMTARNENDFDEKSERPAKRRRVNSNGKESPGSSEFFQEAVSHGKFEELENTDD
UniProt O75352: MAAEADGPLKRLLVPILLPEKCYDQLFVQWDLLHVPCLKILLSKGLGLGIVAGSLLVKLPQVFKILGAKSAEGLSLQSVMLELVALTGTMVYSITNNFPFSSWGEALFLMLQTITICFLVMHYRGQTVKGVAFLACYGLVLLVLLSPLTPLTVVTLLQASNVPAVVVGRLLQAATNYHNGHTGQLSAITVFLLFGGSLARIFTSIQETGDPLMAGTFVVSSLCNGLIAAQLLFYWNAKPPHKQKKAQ
UniProt Q9BRT3: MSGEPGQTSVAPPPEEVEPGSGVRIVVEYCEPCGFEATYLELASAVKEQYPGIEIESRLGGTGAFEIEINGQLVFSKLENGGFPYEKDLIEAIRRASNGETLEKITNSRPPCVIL
UniProt Q7Z3U7: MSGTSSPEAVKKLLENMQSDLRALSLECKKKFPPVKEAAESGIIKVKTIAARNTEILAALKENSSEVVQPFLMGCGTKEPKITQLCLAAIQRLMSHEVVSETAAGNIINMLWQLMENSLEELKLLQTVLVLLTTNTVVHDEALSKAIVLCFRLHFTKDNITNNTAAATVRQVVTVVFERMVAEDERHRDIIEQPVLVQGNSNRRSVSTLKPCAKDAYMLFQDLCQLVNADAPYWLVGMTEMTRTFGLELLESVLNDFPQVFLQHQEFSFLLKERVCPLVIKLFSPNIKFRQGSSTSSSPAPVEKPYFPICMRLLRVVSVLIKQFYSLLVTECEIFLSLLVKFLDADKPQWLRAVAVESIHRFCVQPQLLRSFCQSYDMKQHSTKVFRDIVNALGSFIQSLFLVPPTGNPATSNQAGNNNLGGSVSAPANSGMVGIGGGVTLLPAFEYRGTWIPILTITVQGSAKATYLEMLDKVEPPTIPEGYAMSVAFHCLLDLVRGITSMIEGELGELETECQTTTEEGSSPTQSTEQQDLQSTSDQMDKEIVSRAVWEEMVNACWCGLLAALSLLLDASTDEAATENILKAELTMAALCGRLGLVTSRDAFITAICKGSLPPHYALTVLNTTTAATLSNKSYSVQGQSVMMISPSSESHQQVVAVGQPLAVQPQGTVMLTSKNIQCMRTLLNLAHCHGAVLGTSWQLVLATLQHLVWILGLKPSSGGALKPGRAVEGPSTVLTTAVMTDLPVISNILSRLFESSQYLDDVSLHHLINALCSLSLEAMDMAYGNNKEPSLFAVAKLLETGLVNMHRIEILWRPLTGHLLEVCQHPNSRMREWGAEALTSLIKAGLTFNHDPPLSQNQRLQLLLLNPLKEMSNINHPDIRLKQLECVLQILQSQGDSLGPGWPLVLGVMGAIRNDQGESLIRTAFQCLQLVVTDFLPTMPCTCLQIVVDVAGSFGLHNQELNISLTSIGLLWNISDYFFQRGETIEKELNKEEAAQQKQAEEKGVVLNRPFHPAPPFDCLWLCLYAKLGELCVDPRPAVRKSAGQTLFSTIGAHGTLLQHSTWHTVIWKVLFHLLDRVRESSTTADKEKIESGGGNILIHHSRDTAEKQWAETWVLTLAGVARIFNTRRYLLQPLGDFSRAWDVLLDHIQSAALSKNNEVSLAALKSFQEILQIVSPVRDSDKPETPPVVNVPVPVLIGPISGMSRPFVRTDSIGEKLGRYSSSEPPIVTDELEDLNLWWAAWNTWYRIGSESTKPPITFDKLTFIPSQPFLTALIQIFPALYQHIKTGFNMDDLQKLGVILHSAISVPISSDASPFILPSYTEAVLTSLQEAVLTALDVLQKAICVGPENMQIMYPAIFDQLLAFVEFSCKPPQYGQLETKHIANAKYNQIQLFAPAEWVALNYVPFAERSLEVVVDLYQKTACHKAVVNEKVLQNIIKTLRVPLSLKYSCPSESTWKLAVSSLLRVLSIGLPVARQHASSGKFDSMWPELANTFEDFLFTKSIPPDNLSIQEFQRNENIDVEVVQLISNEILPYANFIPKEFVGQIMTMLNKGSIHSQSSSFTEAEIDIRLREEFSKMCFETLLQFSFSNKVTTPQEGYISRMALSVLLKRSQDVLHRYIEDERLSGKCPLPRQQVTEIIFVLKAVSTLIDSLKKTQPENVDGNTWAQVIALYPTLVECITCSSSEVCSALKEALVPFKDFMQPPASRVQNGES
UniProt Q9UH92: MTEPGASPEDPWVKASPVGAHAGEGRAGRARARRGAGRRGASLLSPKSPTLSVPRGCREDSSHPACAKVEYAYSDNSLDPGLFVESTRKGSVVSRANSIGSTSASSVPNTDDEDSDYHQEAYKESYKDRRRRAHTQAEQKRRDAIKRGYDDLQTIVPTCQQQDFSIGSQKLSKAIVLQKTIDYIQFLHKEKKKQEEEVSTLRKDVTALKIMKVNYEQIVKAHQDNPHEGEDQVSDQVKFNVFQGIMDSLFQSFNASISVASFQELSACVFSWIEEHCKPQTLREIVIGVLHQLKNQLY
UniProt Q9NQG6: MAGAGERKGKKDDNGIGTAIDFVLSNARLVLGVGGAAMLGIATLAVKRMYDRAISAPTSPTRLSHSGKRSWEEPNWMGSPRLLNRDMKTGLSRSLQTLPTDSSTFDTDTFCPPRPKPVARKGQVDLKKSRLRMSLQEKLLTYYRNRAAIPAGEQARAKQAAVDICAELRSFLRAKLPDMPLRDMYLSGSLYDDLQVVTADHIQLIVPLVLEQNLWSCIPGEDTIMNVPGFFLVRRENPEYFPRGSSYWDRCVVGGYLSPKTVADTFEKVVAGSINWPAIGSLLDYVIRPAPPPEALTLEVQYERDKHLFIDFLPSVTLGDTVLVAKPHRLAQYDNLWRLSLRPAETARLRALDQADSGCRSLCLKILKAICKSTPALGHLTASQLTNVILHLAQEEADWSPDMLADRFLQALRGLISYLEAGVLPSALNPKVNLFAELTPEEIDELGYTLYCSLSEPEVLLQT
UniProt Q9BPX6: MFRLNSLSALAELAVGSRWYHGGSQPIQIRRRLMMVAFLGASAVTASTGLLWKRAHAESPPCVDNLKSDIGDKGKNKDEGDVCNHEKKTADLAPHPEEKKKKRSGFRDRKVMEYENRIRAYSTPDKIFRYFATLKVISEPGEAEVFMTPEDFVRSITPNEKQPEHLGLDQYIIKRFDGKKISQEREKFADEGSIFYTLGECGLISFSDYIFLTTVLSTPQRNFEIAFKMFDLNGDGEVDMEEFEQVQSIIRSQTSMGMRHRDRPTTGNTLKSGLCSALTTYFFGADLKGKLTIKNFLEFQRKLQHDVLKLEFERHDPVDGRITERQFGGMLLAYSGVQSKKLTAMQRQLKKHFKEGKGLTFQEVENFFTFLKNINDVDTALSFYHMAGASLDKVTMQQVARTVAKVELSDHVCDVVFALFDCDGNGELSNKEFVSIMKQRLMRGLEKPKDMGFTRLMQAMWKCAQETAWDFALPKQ
UniProt Q7L1V2: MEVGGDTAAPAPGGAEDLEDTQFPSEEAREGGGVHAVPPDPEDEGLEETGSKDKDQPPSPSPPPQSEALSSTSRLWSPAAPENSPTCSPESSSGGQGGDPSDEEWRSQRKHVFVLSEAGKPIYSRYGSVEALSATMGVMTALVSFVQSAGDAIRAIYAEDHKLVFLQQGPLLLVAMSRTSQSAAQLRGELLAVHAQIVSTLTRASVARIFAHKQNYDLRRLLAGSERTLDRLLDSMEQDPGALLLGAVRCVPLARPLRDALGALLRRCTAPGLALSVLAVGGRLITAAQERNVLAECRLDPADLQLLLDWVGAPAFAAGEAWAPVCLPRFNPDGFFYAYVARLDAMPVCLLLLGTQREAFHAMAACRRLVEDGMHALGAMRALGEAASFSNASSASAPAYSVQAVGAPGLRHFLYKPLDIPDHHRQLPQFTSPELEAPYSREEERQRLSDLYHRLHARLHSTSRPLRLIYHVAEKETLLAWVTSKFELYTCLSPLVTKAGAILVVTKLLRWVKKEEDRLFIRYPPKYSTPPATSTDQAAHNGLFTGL
UniProt P39210: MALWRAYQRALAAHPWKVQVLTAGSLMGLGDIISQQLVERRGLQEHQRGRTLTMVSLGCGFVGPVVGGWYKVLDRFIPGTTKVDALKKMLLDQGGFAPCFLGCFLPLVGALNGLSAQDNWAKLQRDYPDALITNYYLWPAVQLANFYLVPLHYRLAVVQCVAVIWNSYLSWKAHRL
UniProt Q9H081: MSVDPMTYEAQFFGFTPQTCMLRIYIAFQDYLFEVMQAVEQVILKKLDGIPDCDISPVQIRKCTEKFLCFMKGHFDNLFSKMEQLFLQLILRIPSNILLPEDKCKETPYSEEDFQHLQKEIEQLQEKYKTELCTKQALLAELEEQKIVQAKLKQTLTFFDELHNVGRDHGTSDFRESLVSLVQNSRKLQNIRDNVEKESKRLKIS
UniProt Q9BVC4, whole entry, looked up: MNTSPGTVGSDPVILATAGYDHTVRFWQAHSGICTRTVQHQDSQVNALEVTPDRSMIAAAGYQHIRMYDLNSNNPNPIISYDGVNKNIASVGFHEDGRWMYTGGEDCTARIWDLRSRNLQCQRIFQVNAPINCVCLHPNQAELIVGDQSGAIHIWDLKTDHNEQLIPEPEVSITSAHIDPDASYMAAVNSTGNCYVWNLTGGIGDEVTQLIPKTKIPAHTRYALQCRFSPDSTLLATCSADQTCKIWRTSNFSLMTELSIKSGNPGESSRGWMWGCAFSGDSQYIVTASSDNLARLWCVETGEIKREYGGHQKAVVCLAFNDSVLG
UniProt P51948: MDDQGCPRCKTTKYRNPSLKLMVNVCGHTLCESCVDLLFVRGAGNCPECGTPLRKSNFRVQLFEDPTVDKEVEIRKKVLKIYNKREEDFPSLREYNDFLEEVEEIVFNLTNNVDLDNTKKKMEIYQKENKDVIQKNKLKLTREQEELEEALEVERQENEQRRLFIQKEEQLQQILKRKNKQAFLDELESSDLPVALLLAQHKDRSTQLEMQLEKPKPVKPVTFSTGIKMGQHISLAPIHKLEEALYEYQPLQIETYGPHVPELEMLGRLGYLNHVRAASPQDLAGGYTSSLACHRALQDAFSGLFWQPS
UniProt Q6WCQ1: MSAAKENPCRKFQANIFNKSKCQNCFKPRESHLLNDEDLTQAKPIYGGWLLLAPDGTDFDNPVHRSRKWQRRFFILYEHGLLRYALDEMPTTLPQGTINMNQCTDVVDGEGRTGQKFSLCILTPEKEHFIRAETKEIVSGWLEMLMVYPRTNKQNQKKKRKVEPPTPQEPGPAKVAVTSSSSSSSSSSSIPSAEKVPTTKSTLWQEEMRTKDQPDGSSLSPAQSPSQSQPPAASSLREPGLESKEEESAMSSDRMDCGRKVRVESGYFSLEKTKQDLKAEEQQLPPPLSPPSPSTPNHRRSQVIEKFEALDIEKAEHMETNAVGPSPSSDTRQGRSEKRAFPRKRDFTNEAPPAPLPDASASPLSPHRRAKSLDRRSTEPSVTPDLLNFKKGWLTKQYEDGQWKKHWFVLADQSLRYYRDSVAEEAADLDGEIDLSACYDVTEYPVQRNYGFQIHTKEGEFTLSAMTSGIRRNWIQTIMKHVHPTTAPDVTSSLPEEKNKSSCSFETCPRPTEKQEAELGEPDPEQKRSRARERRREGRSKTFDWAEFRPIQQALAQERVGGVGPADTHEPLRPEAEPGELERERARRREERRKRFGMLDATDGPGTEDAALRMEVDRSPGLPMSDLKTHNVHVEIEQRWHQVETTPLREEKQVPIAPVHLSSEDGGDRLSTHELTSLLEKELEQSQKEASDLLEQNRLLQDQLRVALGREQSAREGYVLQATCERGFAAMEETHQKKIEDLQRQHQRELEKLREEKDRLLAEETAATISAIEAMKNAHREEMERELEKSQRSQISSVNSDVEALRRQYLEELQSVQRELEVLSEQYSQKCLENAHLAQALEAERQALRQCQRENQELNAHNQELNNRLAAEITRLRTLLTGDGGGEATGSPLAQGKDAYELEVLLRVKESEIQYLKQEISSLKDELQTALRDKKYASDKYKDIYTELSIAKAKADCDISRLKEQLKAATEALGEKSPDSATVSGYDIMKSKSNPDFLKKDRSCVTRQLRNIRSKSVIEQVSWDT

Each target was assayed with C1CN(CCC1(CC2=CC=C(C=C2)Cl)N)C3=NC=NC4=C3C=CN4 (assay: log2 fold change, soluble protein after heating vs DMSO (PISA); higher = thermal stabilisation; K562 cells, 10 uM, 30 min; active = over 0.2 and 3.5 SD of the protein, either way, in both replicates (recomputed)).
Procedure, shortened: (§1)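 K562 cells at 2×10^6 cells/mL were treated with 10 μM compound for 30 min. Aliquots were heated for 3 min across 48°C-58°C, pooled, and extracted in PBS with 0.5% NP-40 at 4°C; soluble protein was the supernatant after 21,000xg for 90 min. Soluble protein was quantified by TMTpro 16plex LC-MS/MS with channel sums equalised, and reported as log2 fold change in thermal stability against DMSO controls, with values from duplicates.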

log2 fold change, inactive:
MPP1 (UniProt Q00013) -0.019
MICU2 (UniProt Q8IYU8) -0.042
MICOS13 (UniProt Q5XKP0) 0.023
MIER1 isoform 12 (UniProt Q8N108) 0.028
MPHOSPH10 (UniProt O00566) -0.023
MOCS3 (UniProt O95396) 0
MINK1 (UniProt Q8N4C8) -0.008
MIF (UniProt P14174) -0.029
MPDU1 (UniProt O75352) 0.136
MORC3 (UniProt Q14149) -0.162
MKRN2 (UniProt Q9H000) 0.061
MRPL46 (UniProt Q9H2W6) -0.075
MIEN1 (UniProt Q9BRT3) -0.076
MRPL47 (UniProt Q9HD33) -0.273
MON2 isoform 5 (UniProt Q7Z3U7) 0.004
MRPL34 (UniProt Q9BQ48) -0.174
MRPL55 isoform 2 (UniProt Q7Z7F7) -0.121
MLX (UniProt Q9UH92) -0.143
MRPL39 (UniProt Q9NYK5) -0.061
MRPL50 (UniProt Q8N5N7) -0.073
MITD1 (UniProt Q8WV92) -0.024
MIEF1 (UniProt Q9NQG6) -0.021
MICU1 isoform 3 (UniProt Q9BPX6) -0.015
MON1B (UniProt Q7L1V2) -0.006
MPV17 (UniProt P39210) -0.009
MIS12 (UniProt Q9H081) -0.016
MND1 (UniProt Q9BWT6) -0.017
MIS18A (UniProt Q9NYP9) 0.005
MLST8 (UniProt Q9BVC4) -0.105
MNAT1 (UniProt P51948) -0.01
MORF4L2 (UniProt Q15014) -0.051
MIEF1 (UniProt L0R8F8) 0.019
MKNK1 (UniProt Q9BUB5) -0.066
MOV10 (UniProt Q9HCE1) -0.158
MRPL57 (UniProt Q9BQC6) -0.196
MMS19 isoform 8 (UniProt Q96T76) -0.01
MPRIP isoform 2 (UniProt Q6WCQ1) -0.196
MICAL3 (UniProt Q7RTP6) -0.005

The targets below were run with C1COCCN1CCN2C3=CC=CC=C3N=C2NC(=O)C4=CC(=CC=C4)[N+](=O)[O-] [IRAK-1-4 Inhibitor I] in the same assay as above.
Procedure, shortened: as §1

log2 fold change, inactive:
MPP1 (UniProt Q00013) -0.073
MICU2 (UniProt Q8IYU8) -0.039
MICOS13 (UniProt Q5XKP0) 0.087
MIER1 isoform 12 (UniProt Q8N108) 0.055
MPHOSPH10 (UniProt O00566) -0.215
MOCS3 (UniProt O95396) -0.056
MINK1 (UniProt Q8N4C8) -0.018
MIF (UniProt P14174) 0.017
MPDU1 (UniProt O75352) 0.022
MORC3 (UniProt Q14149) 0.021
MKRN2 (UniProt Q9H000) -0.063
MRPL46 (UniProt Q9H2W6) -0.069
MIEN1 (UniProt Q9BRT3) 0.105
MRPL47 (UniProt Q9HD33) -0.11
MON2 isoform 5 (UniProt Q7Z3U7) 0.013
MRPL34 (UniProt Q9BQ48) -0.046
MRPL55 isoform 2 (UniProt Q7Z7F7) -0.089
MLX (UniProt Q9UH92) -0.033
MRPL39 (UniProt Q9NYK5) -0.039
MRPL50 (UniProt Q8N5N7) -0.036
MITD1 (UniProt Q8WV92) -0.043
MIEF1 (UniProt Q9NQG6) 0.056
MICU1 isoform 3 (UniProt Q9BPX6) 0
MON1B (UniProt Q7L1V2) 0.047
MIS12 (UniProt Q9H081) 0.024
MND1 (UniProt Q9BWT6) -0.022
MIS18A (UniProt Q9NYP9) -0.01
MLST8 (UniProt Q9BVC4) 0.002
MNAT1 (UniProt P51948) 0.025
MORF4L2 (UniProt Q15014) -0.116
MIEF1 (UniProt L0R8F8) 0.071
MKNK1 (UniProt Q9BUB5) -0.078
MOV10 (UniProt Q9HCE1) -0.135
MMS19 isoform 8 (UniProt Q96T76) -0.141
MPRIP isoform 2 (UniProt Q6WCQ1) 0.125
MICAL3 (UniProt Q7RTP6) 0.04
